Among the data in paper PMC7819943, “Rice protein-binding microarrays: a tool to detect cis-acting elements near promoter regions in rice” are binding signal values, retold here.

Some of the results follow.

The target in the test is T1, OsSMF1 (Oryza sativa, UniProt Q6ZLB0 1-436).
T1 sequence: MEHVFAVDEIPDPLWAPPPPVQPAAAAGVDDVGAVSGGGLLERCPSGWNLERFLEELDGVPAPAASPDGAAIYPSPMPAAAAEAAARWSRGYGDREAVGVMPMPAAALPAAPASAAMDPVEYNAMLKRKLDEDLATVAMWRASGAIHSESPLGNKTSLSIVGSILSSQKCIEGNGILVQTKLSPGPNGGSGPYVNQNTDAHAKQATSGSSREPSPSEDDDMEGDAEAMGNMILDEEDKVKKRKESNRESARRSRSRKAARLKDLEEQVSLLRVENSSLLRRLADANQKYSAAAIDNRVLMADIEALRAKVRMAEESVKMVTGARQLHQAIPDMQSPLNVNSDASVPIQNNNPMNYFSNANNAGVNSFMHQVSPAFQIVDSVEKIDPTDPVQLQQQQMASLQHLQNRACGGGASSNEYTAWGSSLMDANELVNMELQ
Put plainly: protein-binding microarray (RPBM); PBS, 2% BSA, 51.3 ng/ul salmon testes DNA, 50 uM zinc acetate, 200 nM TF, 25 C, 1 h; high values mean tight binding. The note with it: protein: recombinant; tags: N-terminal polyhistidine and DsRed monomer fusion (pET32a); chain copies: 2; label: CyDye5-dUTP incorporated in the synthesized complementary strand; 3' TTTTT single-stranded linker to array surface; dsDNA, one strand shown. A digest of the protocol: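 Transcription factors, each fused N-terminally to a polyhistidine tag and DsRed, were expressed in E. coli BL21-CodonPlus and purified on Ni–NTA. A custom Agilent array was made double-stranded by primer extension with Cy5-dUTP and blocked with 2% BSA. It was incubated with 200 nM protein in PBS, 2% BSA, salmon testes DNA and 50 µM zinc acetate at 25 °C for 1 h, then washed. The binding signal is per-feature fluorescence intensity (arbitrary units) read on an Axon 4000B scanner.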
As for “ATCGTATCATTCTAGACGGAATGGAGATGGTACTGTTGGACGGAGTCACCTAGTGCAG”, the binding signal is 35600 fluorescence intensity (a.u.).
As for “GGTCATACGTGTCATATTGCCCCTCAGTTATGCATTCATACGGAGTCACCTAGTGCAG”, the figure is 10700 fluorescence intensity (a.u.).
As for “CTTTTAAGTATAGTAGTAGTAGATTGAGGTAGCTGGTTATCGGAGTCACCTAGTGCAG”, the figure is 3570 fluorescence intensity (a.u.); as for “ACATCAAACATGCACGCGGATCATCCACGTGCCAAGACGGCGGAGTCACCTAGTGCAG”, 5580 fluorescence intensity (a.u.); as for “CCACCCCGACCTGACCTAACCCACCACCTCCTCGGCGCCGCGGAGTCACCTAGTGCAG”, 7900 fluorescence intensity (a.u.).
The same measure for “GATCAAGCGGCGGTACTTCCGACAGGACCACGGCGACAAGCGGAGTCACCTAGTGCAG”: 3330 fluorescence intensity (a.u.); for “GTGTTCACCTGTTCGGGCTCGTGCTTACCAGCTAGGGTAACGGAGTCACCTAGTGCAG”: 3320 fluorescence intensity (a.u.); for “GACTAAATGAATAAAATGACAGGAGGTGATGGGTAAAATTCGGAGTCACCTAGTGCAG”: 22000 fluorescence intensity (a.u.).
Regarding “CTTCAGCGTCCTACGTGTAAGCTAGAGAAGCCACGTGGCTCGGAGTCACCTAGTGCAG”, the binding signal is 10800 fluorescence intensity (a.u.).
As to “TTGATCAATATATAGCTGTCTGGTTTTATGCTCTCCAGCTCGGAGTCACCTAGTGCAG”, the binding signal is 4790 fluorescence intensity (a.u.).
With “GGAGGCCGTCGTCGCCATGGAGGTCGTCGTGGCGACAGCGCGGAGTCACCTAGTGCAG”, the binding signal is 3870 fluorescence intensity (a.u.).
“CTTCTCGGAGGCACACCAGGTCACCAGCACGTGTGCAAGCCGGAGTCACCTAGTGCAG”: the binding signal was 4050 fluorescence intensity (a.u.).
The same measure for “TGATTTCATGGACCTAATGGGCCGTGTCTTCGTGGGCCGACGGAGTCACCTAGTGCAG”: 3510 fluorescence intensity (a.u.); for “TGTACGACACGCGCGTCGATCGGATCACTCGCACTAAATTCGGAGTCACCTAGTGCAG”: 3270 fluorescence intensity (a.u.).
As to “AGATAAGACATGCCTCGTCGGATCGATATAATCGCCTTAGCGGAGTCACCTAGTGCAG”, the binding signal was 3650 fluorescence intensity (a.u.).
As for “GGAGATAAGGGTGTCCATGGTGTCACCGAGGGCAATGAGGCGGAGTCACCTAGTGCAG”, the figure is 4700 fluorescence intensity (a.u.); as for “TCCGTGCTACAGCTAGCTACAGATATGTAGTCCGTCATTCCGGAGTCACCTAGTGCAG”, 45200 fluorescence intensity (a.u.).
As for “GAGGTACATGGTGGCATGCTCGAGGGCGTCCGGCCGGATACGGAGTCACCTAGTGCAG”, the figure is 3390 fluorescence intensity (a.u.).
On to “AAATGAGTGGGCGACAACGTTGACACGGCACCAAACGCCTCGGAGTCACCTAGTGCAG”, for which the binding signal is 5750 fluorescence intensity (a.u.).
The same measure for “ATTGCAAAATTCGTTTCCAATATCGGCTATAATTTTGTAGCGGAGTCACCTAGTGCAG”: 25600 fluorescence intensity (a.u.); for “TGCACTATTCTATATTATATTATGCAAGTTTATTTTACGACGGAGTCACCTAGTGCAG”: 3260 fluorescence intensity (a.u.); for “TTCTTGAATTGCTGGAGAGGGGTGGGGAAGAAAGATCGGGCGGAGTCACCTAGTGCAG”: 3500 fluorescence intensity (a.u.).
The same measure for “TTAATCAGACTAGTAGAATCGCCGGGTACCCACATGCCTGCGGAGTCACCTAGTGCAG”: 20100 fluorescence intensity (a.u.); for “GCCCTTTACAGTGCTCCTACGTGGGCGAGTTGCCAAGTGCCGGAGTCACCTAGTGCAG”: 3430 fluorescence intensity (a.u.).
As for “ATAATTTTATTGCAATAAACCTTATAGTATAGTATATGAGCGGAGTCACCTAGTGCAG”, the binding signal was 21600 fluorescence intensity (a.u.).
The same measure for “GCCATCTAGTTCCTCCTACCACCACGTCCTCTTTTCCTGCCGGAGTCACCTAGTGCAG”: 5520 fluorescence intensity (a.u.).
As for “CCGGGCGTTGTGTTTGGCTGGCCGTACGTCCCCTTCGACTCGGAGTCACCTAGTGCAG”, the figure is 3370 fluorescence intensity (a.u.); as for “TATTTAAGTCAGTACTAAAGCACACATGTACAAATTTTACCGGAGTCACCTAGTGCAG”, 4160 fluorescence intensity (a.u.); as for “CTTCCATTCCAACCCCAATTAGCACTAGATCGTCATCGCTCGGAGTCACCTAGTGCAG”, 3200 fluorescence intensity (a.u.).
As for “TTTCAGCCCGGTTTTATCTGACGTGGTGGCTGAATCAGCACGGAGTCACCTAGTGCAG”, the figure is 14500 fluorescence intensity (a.u.); as for “GTTTTATGGTTGGAGGTCATGAATCATACTCGTGTCATAGCGGAGTCACCTAGTGCAG”, 7410 fluorescence intensity (a.u.); as for “AGCGGGCCTCGCCAGCGCCGCATGCCGCCTCTGGCTCCGTCGGAGTCACCTAGTGCAG”, 3620 fluorescence intensity (a.u.).
As for “TCGGCGCCGGAGTCAACCGTTTTCAGGACAGCATCGGCACCGGAGTCACCTAGTGCAG”, the binding signal is 3730 fluorescence intensity (a.u.).
As for “TTGGCTCTGTTTACACGTATGATGCTTTGTCAGGTTGGAGCGGAGTCACCTAGTGCAG”, the figure is 11300 fluorescence intensity (a.u.); as for “CATAATTAATATCTAGTCCCAACTATCATACATATATGTACGGAGTCACCTAGTGCAG”, 22900 fluorescence intensity (a.u.).
For the sequence “TCGCATACATGAGCCGGTTGCGTTCTGCCCCGGTTGTTTGCGGAGTCACCTAGTGCAG”, the binding signal was 4130 fluorescence intensity (a.u.).
The same measure for “CAACCCCACAACCGTCAACTCCAGCTCGGCTTCTCCTCCTCGGAGTCACCTAGTGCAG”: 4260 fluorescence intensity (a.u.); for “ACTTGGTCAAGACCACCACGTAAGCACCACGTAGGACAAACGGAGTCACCTAGTGCAG”: 15600 fluorescence intensity (a.u.).
As for “AGCTTCGCACTGGGCACGTGTGCCTGTGTGTGGGAGTCAGCGGAGTCACCTAGTGCAG”, the figure is 4070 fluorescence intensity (a.u.); as for “TCGATGAATCTGTCCACGTCCCGTATTAAGTTTGTTTATTCGGAGTCACCTAGTGCAG”, 6190 fluorescence intensity (a.u.); as for “GAAACATTGCGTGCTTTCGCGCACCTGGTGTTATTTATTCCGGAGTCACCTAGTGCAG”, 3540 fluorescence intensity (a.u.).
For the sequence “CACAACCACAAGGTTGTCATTACCTCTATCATCGGTGTAACGGAGTCACCTAGTGCAG”, the binding signal is 3380 fluorescence intensity (a.u.).
